Consider nine substances from article PMC10608102.

By UniProt entry, the sequences of proteins in these tests, tags left out. Where a name states a change or a piece, a line headed by the entry shows the natural chain unless it says otherwise.
UniProt R0M8E4: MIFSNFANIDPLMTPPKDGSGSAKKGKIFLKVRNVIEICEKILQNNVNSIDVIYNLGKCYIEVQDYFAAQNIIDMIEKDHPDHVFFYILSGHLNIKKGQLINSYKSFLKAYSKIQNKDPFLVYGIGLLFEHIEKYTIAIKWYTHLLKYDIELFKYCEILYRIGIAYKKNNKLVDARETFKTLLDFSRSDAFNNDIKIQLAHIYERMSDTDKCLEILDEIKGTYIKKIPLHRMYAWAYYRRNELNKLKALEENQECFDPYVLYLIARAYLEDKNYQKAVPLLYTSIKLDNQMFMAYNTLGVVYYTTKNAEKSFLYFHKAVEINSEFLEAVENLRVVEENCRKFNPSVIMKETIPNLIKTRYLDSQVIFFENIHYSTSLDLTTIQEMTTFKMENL
UniProt R0MRC6: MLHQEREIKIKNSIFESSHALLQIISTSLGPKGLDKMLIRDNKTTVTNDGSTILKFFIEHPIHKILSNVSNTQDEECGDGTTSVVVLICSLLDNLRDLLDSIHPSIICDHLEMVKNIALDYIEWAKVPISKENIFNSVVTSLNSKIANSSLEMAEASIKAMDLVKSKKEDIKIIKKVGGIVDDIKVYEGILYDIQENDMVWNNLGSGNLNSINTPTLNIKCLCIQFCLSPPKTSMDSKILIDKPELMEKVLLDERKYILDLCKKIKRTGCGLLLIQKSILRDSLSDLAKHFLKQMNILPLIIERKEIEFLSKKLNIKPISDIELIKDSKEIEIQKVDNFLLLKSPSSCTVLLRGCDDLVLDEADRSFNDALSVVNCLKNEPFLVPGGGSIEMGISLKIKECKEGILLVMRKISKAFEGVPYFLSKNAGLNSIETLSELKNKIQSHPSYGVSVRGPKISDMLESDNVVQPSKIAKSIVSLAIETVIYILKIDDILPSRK
UniProt R0M363: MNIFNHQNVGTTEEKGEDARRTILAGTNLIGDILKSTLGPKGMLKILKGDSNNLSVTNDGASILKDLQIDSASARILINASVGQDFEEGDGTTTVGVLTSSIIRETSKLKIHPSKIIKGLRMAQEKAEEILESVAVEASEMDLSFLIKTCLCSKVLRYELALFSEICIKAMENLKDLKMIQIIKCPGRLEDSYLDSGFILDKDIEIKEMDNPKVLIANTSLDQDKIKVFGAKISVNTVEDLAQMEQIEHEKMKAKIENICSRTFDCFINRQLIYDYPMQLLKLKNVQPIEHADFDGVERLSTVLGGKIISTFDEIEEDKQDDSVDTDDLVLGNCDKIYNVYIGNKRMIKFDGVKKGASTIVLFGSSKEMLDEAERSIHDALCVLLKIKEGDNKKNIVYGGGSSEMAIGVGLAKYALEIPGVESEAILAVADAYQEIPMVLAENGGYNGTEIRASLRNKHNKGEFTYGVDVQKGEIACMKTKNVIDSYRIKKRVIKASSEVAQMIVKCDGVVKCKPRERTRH
UniProt R0M0F9: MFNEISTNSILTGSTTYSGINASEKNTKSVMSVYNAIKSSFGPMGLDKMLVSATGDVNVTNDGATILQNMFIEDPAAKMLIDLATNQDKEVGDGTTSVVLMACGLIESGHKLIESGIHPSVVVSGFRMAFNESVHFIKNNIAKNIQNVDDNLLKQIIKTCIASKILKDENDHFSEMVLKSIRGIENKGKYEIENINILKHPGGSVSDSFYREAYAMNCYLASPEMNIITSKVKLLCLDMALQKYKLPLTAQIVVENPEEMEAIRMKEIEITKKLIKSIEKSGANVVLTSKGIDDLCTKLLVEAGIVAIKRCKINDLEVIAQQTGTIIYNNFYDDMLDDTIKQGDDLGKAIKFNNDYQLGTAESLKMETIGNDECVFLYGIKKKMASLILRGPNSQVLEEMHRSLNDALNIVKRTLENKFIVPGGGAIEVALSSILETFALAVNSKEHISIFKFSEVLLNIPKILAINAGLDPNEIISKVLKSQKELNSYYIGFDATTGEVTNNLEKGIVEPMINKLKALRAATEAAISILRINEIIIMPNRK
UniProt R0MKS5: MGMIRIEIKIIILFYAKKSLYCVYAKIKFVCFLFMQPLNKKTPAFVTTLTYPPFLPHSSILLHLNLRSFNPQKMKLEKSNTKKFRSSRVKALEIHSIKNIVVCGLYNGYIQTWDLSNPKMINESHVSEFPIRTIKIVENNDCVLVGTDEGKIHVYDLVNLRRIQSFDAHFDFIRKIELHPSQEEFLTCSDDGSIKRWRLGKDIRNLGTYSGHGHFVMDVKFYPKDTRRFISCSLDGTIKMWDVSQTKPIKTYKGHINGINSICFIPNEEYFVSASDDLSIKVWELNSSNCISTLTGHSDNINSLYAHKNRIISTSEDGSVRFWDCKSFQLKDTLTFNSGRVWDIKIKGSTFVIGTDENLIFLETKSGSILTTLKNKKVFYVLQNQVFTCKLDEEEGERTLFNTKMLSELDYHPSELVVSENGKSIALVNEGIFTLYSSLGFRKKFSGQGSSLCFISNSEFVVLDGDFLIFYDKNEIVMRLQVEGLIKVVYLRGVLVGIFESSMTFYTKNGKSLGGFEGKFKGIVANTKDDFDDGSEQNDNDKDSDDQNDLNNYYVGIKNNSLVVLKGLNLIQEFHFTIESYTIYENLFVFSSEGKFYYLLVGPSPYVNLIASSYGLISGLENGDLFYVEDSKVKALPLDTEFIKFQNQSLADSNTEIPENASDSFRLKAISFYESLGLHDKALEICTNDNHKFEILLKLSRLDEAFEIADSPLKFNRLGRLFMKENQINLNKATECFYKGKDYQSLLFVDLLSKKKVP
UniProt R0KN94: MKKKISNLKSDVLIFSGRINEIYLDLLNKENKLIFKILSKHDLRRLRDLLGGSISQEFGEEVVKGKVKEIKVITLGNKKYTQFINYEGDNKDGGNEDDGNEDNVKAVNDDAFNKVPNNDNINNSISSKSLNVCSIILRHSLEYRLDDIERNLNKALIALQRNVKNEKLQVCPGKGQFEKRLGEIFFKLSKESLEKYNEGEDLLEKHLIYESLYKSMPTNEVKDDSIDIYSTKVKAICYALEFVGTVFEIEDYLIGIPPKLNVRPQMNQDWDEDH
UniProt R0KU88: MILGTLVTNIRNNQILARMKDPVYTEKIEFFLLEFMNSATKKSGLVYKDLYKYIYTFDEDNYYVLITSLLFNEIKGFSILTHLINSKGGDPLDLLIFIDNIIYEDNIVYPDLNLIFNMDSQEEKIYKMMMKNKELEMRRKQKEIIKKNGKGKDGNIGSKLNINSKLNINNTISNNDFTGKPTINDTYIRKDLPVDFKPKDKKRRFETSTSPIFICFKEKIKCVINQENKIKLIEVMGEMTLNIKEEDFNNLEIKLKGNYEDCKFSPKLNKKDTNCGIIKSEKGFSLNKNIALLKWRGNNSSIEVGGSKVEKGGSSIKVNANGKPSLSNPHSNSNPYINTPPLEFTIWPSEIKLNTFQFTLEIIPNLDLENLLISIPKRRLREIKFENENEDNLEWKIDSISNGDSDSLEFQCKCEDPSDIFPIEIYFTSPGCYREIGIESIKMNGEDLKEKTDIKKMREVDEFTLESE
UniProt R0KMZ4: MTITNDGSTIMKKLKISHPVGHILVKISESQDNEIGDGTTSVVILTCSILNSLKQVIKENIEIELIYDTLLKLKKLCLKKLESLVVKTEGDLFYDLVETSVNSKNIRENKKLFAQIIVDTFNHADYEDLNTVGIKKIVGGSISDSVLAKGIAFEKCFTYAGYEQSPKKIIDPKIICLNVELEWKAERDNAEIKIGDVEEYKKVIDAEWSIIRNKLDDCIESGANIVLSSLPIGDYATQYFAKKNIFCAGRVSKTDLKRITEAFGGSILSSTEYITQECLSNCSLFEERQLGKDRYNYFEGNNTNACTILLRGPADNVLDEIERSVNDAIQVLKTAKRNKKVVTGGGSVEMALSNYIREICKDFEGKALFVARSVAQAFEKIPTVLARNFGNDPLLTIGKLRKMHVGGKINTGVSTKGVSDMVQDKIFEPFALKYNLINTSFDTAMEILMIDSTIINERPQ
UniProt R0KPG4: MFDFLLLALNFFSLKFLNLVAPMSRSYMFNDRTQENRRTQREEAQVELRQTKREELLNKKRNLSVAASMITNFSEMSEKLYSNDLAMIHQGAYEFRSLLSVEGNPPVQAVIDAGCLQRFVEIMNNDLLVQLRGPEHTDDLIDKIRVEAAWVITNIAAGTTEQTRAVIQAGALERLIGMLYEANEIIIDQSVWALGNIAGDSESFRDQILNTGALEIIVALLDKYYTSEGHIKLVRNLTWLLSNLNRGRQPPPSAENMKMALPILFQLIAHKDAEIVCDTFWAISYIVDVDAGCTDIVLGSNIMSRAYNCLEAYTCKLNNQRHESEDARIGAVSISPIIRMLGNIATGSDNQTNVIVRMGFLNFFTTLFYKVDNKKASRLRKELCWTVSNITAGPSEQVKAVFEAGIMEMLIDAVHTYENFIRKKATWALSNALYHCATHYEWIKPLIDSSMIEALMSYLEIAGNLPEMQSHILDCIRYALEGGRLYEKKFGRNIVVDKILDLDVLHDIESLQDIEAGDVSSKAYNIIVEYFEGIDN
UniProt R0M6E7: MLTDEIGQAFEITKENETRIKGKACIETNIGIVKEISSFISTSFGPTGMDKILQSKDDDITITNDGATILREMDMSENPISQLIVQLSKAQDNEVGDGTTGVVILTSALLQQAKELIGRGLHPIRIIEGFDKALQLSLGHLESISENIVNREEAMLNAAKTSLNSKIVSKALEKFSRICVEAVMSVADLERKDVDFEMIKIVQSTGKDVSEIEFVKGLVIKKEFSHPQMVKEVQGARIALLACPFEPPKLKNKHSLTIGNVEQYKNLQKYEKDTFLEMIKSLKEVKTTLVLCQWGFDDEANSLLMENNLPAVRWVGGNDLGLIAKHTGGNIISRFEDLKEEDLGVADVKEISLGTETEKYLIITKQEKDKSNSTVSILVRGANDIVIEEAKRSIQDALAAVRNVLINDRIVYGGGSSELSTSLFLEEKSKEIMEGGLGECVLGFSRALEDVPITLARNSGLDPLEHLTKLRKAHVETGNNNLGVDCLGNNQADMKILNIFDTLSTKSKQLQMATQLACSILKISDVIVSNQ

These are yes or no findings as the source states them, for the method shown. In cells and extracts the contact can be indirect. A yes stands for co-enrichment or nearness to the bait. Other partners may have been found.

The assay addresses general transcriptional corepressor Ssn6 of Nosema bombycis (Nbssn6) (Nosema bombycis (endogenous in N. bombycis spores)) (UniProt R0M8E4). Description: affinity purification with mass spectrometry; Co-IP: 2 ug Nbssn6 polyclonal antibody in 500 uL protein solution of N. bombycis (NP-40 lysate) with protease inhibitor cocktail, 4 °C 16 h; Protein A magnetic beads 4 °C 6~8 h; washed with PBS 3 times; specific SDS-PAGE (Coomassie) bands cut for mass spectrometry; rabbit IgG as negative control.
Consider “T-complex protein 1 subunit delta (from UniProt R0MRC6)”, for which the binding entry is given as “binds”.
The entry for “T-complex protein 1 subunit beta (from UniProt R0M363)” is “binds”; for “T-complex protein 1 subunit alpha (from UniProt R0M0F9)” it is “binds”.
As for “Coatomer subunit beta (from UniProt R0MKS5)”, the entry is “binds”.
As for “T complex protein 1 theta subunit (from UniProt R0KN94)”, the entry is “binds”.
For “Coatomer subunit delta-3 (from UniProt R0KU88)”, the binding result is given as “binds”.
As for “T-complex protein 1 subunit eta (from UniProt R0KMZ4)”, the entry is “binds”.
As for “Importin subunit alpha-2 (from UniProt R0KPG4)”, the entry is “binds”.
As for “T-complex protein 1 subunit epsilon (from UniProt R0M6E7)”, the entry is “binds”.
